Here are results for 2 sequences from PMC9295959.

Protein sequences, listed by entry. Tags and fused reporters are not part of them.
UniProt A0A8G0KLC2, entry or part of it: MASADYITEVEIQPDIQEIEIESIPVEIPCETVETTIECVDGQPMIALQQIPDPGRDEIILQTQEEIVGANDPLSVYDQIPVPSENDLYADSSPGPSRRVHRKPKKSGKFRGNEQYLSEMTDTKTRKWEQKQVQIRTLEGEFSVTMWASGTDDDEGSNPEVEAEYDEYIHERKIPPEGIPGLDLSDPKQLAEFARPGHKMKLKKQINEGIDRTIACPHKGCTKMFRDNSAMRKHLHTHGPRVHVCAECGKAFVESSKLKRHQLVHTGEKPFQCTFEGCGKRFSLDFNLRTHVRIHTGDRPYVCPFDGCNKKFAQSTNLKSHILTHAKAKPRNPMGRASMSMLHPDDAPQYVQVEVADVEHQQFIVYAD

This data set deals with YY1-His (Laodelphax striatellus (small brown planthopper)) (UniProt A0A8G0KLC2). The experiment in a line: EMSA. The conditions noted are these: 50x unlabeled probe or anti-YY1 antibody reduced the shift; EMSA: 1 nM biotin probe, nuclear extract, 20 uL with 2.5% glycerol, 5 mM MgCl2, 50 ng/uL poly(dI/dC), 0.05% NP-40; 4.5% native PAGE; protein in a lysate after overexpression; residues 1-368; protein details: His; label: biotin.

For at least one entry, the source does not settle the construct or the ends of the probe. Results from cells or extracts need not show a direct contact.

“GTACGTTCACCGTCACAGCCACTCAAAGAA (double strand) [TFBS1 probe]”: the binding result is on record as “binds”. For the sequence “TGAAGTGGAAGATGGAATTAGGTTTG (double strand) [TFBS2 probe]”, the binding result is on record as “binds”.
